Results published in PMC8074078.
Results are given in words; binding and its absence hold for the method and conditions named. Binding seen in cells or lysates may run through a third protein. Here binding means that the protein was enriched with, or labelled near, the bait; the list need not be complete.

By UniProt entry, the sequences of proteins in these tests, tags left out. Where a name states a change or a piece, a line headed by the entry shows the natural chain unless it says otherwise. Chains listed by the source or under a name are the forms on record and can include a tag or linker.
His6-PACRG (Parkin co-regulated gene) (Q96M98, form named): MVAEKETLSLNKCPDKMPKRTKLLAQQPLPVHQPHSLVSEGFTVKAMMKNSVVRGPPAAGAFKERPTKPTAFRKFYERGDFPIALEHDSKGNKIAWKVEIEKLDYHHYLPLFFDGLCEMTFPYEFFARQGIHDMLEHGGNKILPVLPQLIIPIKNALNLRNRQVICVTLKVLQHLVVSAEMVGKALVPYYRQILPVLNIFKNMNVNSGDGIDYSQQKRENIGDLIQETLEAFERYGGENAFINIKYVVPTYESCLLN
UniProt Q676U5: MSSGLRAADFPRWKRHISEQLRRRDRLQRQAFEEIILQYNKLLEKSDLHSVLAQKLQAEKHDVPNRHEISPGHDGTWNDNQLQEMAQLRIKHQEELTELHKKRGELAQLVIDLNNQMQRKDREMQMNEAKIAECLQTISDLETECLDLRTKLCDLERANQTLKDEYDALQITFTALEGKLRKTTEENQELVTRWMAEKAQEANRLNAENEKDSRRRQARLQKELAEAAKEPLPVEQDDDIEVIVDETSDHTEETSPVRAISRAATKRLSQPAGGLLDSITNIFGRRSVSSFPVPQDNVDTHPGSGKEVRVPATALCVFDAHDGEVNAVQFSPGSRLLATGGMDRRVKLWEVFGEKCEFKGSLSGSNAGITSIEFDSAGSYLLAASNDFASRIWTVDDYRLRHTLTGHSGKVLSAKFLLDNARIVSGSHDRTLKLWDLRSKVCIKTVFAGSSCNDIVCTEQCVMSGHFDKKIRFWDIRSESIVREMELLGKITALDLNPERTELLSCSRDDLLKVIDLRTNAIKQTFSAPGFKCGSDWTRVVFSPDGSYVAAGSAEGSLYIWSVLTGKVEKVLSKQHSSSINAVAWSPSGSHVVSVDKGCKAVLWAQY
UniProt Q9BUI4: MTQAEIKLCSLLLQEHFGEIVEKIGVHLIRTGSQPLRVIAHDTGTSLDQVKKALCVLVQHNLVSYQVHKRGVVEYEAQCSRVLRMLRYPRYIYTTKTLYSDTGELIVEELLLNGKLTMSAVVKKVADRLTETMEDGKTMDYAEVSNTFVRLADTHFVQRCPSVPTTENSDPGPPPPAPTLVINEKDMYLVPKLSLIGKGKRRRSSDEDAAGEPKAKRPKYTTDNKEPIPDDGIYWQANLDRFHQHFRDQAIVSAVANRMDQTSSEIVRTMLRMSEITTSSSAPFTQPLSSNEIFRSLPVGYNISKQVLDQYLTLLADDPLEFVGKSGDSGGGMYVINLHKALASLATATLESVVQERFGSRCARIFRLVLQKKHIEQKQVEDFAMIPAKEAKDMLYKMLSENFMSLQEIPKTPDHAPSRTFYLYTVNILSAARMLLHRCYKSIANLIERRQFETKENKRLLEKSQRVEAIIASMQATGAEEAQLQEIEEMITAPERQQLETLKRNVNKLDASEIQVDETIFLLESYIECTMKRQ
UniProt Q9UGJ1: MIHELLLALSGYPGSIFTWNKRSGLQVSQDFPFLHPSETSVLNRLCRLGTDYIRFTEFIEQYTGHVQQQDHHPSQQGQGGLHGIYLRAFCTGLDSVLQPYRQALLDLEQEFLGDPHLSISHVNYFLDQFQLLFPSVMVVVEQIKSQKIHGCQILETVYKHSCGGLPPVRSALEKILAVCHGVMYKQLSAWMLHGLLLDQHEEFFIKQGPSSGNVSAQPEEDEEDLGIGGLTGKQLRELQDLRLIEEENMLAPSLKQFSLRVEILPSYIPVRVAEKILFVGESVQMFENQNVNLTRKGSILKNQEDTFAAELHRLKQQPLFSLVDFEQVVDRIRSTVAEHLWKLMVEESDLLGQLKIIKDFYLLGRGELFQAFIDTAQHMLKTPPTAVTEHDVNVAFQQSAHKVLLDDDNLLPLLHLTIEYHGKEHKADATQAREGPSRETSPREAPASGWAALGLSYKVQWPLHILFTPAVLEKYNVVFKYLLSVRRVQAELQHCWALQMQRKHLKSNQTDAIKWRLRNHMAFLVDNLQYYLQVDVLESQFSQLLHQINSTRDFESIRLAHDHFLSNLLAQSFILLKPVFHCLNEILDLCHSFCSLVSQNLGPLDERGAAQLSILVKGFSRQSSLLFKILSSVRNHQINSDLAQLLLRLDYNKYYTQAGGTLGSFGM
UniProt Q9P2H5: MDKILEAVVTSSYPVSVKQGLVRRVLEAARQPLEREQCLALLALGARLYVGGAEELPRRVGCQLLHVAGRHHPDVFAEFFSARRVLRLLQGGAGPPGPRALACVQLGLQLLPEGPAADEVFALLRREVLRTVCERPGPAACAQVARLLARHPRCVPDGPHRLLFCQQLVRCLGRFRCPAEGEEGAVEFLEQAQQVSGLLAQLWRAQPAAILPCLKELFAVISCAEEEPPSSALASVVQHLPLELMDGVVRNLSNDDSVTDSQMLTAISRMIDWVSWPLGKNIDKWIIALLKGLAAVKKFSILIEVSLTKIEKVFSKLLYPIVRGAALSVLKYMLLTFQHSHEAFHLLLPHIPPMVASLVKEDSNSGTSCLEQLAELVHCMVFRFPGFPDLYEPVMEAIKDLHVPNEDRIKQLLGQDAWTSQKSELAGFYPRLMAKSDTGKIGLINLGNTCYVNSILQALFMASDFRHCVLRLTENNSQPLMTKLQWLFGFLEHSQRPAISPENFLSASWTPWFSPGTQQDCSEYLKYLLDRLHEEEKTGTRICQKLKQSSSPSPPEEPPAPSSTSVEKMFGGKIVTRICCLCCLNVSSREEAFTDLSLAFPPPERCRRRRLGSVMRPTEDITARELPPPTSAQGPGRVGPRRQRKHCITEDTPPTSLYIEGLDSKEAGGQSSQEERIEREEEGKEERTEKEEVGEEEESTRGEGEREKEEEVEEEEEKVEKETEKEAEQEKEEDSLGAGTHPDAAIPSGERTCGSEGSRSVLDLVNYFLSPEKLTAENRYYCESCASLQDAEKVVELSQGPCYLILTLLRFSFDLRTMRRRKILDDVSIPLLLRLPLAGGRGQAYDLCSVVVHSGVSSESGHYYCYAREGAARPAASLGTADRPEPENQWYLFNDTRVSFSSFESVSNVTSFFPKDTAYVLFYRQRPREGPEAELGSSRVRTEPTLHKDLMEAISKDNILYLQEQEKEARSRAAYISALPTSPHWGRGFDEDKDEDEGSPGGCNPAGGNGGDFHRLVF
UniProt P55036: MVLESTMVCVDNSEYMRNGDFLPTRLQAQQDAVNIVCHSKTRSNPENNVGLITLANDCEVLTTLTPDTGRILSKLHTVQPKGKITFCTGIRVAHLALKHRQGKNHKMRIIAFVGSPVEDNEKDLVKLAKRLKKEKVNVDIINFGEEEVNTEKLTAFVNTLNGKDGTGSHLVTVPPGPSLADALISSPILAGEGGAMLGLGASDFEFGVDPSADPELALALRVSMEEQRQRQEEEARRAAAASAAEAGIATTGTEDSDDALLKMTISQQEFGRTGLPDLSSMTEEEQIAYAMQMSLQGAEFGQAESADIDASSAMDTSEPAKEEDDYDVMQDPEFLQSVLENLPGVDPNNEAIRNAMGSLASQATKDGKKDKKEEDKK
UniProt O43143: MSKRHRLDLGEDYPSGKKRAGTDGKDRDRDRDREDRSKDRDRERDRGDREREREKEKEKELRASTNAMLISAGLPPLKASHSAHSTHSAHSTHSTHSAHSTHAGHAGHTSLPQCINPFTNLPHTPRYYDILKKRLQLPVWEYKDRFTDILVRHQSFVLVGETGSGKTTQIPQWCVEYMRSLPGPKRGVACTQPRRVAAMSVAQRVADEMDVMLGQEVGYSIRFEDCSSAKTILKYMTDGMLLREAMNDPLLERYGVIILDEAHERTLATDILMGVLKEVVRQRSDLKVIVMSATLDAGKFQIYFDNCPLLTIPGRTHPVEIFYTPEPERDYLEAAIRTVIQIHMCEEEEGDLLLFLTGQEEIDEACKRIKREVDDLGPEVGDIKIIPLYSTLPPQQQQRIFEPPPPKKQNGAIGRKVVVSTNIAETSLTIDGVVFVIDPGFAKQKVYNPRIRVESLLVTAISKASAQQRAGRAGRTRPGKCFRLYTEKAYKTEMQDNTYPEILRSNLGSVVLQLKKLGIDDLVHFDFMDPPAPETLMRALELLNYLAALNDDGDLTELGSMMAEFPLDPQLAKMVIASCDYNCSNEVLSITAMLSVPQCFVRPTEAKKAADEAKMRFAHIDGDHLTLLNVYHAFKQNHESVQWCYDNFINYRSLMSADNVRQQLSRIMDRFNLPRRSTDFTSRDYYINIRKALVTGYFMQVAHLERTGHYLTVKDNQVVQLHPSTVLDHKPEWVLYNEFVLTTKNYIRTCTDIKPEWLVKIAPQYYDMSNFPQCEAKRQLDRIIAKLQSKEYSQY
UniProt P0DMV8: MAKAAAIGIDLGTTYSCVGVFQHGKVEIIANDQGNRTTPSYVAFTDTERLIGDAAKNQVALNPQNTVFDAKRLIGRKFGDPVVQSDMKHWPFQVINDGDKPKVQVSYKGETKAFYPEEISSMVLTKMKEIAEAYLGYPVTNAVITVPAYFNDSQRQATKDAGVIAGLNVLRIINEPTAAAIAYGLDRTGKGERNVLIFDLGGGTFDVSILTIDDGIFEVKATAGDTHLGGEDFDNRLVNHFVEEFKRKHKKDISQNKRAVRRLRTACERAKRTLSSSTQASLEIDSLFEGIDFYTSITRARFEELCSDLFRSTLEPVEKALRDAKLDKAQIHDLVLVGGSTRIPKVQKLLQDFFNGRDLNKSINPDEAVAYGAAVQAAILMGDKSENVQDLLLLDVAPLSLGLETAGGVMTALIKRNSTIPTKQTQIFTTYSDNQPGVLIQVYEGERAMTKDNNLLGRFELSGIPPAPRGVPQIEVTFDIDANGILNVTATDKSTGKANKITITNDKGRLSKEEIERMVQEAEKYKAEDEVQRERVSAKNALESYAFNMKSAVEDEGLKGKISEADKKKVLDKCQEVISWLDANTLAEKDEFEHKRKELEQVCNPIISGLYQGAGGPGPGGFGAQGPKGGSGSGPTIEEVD
UniProt P30154: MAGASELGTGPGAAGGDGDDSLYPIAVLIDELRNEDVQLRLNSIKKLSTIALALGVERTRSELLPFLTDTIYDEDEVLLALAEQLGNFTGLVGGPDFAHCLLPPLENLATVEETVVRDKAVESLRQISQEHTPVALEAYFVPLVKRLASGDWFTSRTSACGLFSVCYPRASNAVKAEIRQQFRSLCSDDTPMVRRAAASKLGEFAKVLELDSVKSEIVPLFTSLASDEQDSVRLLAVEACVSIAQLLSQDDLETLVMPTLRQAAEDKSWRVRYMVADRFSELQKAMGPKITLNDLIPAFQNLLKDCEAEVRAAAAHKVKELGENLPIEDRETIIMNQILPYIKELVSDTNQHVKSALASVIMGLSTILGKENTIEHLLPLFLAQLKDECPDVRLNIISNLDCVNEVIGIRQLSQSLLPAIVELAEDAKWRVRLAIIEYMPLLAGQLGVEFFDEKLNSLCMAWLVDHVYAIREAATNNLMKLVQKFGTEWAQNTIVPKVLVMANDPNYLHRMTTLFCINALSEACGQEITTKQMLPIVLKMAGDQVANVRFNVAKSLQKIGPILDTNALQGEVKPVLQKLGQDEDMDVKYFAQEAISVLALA
UniProt Q13485: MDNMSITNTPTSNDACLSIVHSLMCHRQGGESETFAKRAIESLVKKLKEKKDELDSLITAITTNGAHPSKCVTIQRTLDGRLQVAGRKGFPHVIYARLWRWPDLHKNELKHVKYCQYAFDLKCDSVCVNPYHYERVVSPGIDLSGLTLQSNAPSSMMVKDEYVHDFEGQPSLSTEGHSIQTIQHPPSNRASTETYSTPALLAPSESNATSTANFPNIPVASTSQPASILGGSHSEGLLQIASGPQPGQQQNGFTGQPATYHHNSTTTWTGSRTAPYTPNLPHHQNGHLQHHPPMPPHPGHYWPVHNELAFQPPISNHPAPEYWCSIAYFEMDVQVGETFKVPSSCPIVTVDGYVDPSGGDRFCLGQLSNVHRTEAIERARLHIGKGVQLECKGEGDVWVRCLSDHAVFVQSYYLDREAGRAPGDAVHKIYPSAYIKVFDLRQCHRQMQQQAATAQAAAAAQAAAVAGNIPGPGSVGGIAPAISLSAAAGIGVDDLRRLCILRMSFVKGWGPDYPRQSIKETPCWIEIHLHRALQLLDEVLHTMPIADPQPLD
UniProt P25490: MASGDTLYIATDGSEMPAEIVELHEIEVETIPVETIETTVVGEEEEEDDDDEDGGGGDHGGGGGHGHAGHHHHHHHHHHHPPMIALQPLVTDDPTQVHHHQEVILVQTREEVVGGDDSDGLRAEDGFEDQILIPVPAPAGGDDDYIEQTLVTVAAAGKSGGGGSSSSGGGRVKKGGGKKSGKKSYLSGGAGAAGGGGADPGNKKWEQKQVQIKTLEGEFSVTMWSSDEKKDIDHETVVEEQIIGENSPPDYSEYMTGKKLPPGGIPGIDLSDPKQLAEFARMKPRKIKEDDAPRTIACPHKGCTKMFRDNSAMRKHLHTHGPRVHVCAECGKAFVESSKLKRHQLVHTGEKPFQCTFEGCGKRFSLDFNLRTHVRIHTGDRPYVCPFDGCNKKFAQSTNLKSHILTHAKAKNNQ

What was measured:
[1] = target: His6-GST-PACRG (human) (UniProt Q96M98); assay: affinity purification with mass spectrometry; purified His6-tagged bait coupled to Ni2+-charged resin (2 h, 4 °C), incubated 2 h with supernatant of HEK293T cell lysate, washed three times with 5 mM imidazole; bound proteins identified by LC-MS/MS; controls: Ni2+-charged resin alone (for His6-PACRG) and His6-GST (for His6-GST-PACRG); only proteins found with both baits accepted; only the target purified
[2] = target: His6-PACRG (Parkin co-regulated gene) (human) (UniProt Q96M98); assay: as above

| Substance | binding [1] | binding [2] |
| --- | --- | --- |
| ATG16L1 (from UniProt Q676U5 1-607) | binds | binds |
| HEXIM1 (from UniProt O94992 1-359) | binds | binds |
| IGF2BP2 (from UniProt Q9Y6M1 1-599) | binds | binds |
| MNX1 (from UniProt P50219 1-401) | binds | binds |
| POLR3C (from UniProt Q9BUI4 1-534) | binds | binds |
| SNTB2 (from UniProt Q13425 1-540) | binds | binds |
| STXBP1 (from UniProt P61764 1-594) | binds | binds |
| TUBGCP4 (from UniProt Q9UGJ1 1-667) | binds | binds |
| USP35 (from UniProt Q9P2H5 1-1018) | binds | binds |
| ZNF24 (from UniProt P17028 1-368) | binds | binds |
| ZNF787 (from UniProt Q6DD87 1-382) | binds | binds |
| proteasome regulatory subunit PSMD4 (from UniProt P55036 1-377) | binds | binds |

Now from value to substance:

| binding [1] | binding [2] | Substance |
| --- | --- | --- |
| binds | binds | BCLAF1 (from UniProt Q9NYF8 1-920) |
| binds | binds | DHX15 (from UniProt O43143 1-795) |
| binds | binds | FUBP1 (from UniProt Q96AE4 1-644) |
| binds | binds | HSPA1A (from UniProt P0DMV8 1-641) |
| binds | binds | HSPA5 (from UniProt P11021 19-654) |
| binds | binds | HSPA8 (from UniProt P11142 1-646) |
| binds | binds | HSPD1 (from UniProt P10809 27-573) |
| binds | binds | IRF3 (from UniProt Q14653 1-427) |
| binds | binds | PPP2R1B (from UniProt P30154 1-601) |
| binds | binds | RSRC2 (from UniProt Q7L4I2 1-434) |
| binds | binds | SMAD1 (from UniProt Q15797 1-465) |
| binds | binds | SMAD3 (from UniProt P84022 1-425) |
| binds | binds | SMAD4 (from UniProt Q13485 1-552) |
| binds | binds | TUBB2B (from UniProt Q9BVA1 1-445) |
| binds | binds | transcription factor YY1 (Yin Yang 1) (from UniProt P25490 1-414) |
